Data reported in PMC10950212, “Structure and antigenicity of the divergent human astrovirus VA1 capsid spike” (PLOS Pathogens, 2024).
These are yes or no findings as the source states them, for the method shown. Binding seen in cells or lysates may run through a third protein. Some binding calls cover weakened binding; strength is not graded here.

Chains of the proteins cited; added tags and fusions are not shown. Residues count along the entry.
HAstV-VA1 capsid protein VP33 (Human astrovirus VA1 (gastrointestinal strain)) (C7BG48, residues 1-298): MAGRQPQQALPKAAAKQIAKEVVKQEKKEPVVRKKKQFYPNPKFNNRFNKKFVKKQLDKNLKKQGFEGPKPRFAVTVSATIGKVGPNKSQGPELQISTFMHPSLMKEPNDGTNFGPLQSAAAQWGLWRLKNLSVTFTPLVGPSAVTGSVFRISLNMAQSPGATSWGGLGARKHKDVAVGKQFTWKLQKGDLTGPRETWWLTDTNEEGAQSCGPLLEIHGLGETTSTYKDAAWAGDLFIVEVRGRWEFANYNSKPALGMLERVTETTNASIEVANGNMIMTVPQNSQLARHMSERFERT
HAstV-VA1 capsid protein VP38 (C7BG48, residues 348-690): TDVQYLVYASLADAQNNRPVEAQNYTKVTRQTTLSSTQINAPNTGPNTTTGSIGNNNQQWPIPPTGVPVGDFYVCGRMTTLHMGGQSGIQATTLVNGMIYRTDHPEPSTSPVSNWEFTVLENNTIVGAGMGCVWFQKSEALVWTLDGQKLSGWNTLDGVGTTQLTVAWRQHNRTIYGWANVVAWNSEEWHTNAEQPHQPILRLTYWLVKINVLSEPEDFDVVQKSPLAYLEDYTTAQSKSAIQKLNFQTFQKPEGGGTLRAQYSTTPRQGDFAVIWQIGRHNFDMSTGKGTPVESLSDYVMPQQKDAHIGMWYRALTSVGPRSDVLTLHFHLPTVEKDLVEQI

Target: HAstV-VA1 capsid protein VP33 (Human astrovirus VA1 (gastrointestinal strain)) (UniProt C7BG48)
Assay: co-sedimentation; virus particles from Caco-2 cells purified by CsCl isopycnic centrifugation; capsid proteins separated by SDS-PAGE, Coomassie, bands identified by LC-MS/MS

**Q.** “HAstV-VA1 capsid protein VP38 (from UniProt C7BG48 348-690) (domain or fragment)” was tested. Which binding did it give?
**A.** Its binding is “binds”.
